Source: PMC3660581

Target: Mitofilin (bovine heart mitochondria) (bovine (endogenous in heart mitochondria))
Experiment: native gel or EMSA; complexome profiling: bovine heart mitochondria solubilized with digitonin (6 g/g), large pore blue native electrophoresis (5-9%), 52 gel slices, quantitative mass spectrometry, hierarchical clustering of migration profiles

B1: coiled-coil-helix-coiled-coil-helix domain containing protein 3 (CHCHD3) (bovine heart mitochondria) (protein, UniProt Q5E9D3 1-227)
chain: MGGTASTRRVTFEADENENITVVKGIRLSENVIDRMKETSPSGPKSQRYSGTYGASVSDEELKRRVAEELALEQAKKESENQKRLKQSKELDAEKAFANEQLTRAILRERISNEEERAKAKHLAKQLEEKDRVIKKQDAFYKEQLARLEERSSEFYKVTTEQYQKAAEEVEAKFKRYEYHPVCADLQAQILQCYRQNTQQTLSCSALASQYMRCVNQAKQSTLEKGG
  binding: binds

Results are given in words; binding and its absence hold for the method and conditions named. Binding calls can cover weak binding; strength is not graded here.
